For 1 molecule, binding results are on record in PMC5620139.

The target in the experiment is recombinant human platelet derived growth factor-C (human), Q9NRA1. Description: ELISA; cell-free binding assay; Maxisorp Nunc 96-well plates coated with 1 μg/ml PDGF-C in PBS, blocked with 2% BSA in PBS; receptor/hFc chimera 1 μg/ml, 37°C for 30 min in blocking buffer with 1 mM CaCl2 and MgCl2; detected with alkaline phosphatase-conjugated anti-human Fc goat IgG, OD 405 nm; both purified. The conditions noted are these: remark: other sources report otherwise. In general terms: ELISA stands for enzyme-linked immunosorbent assay.

Results are given in words; binding and its absence hold for the method and conditions named.

B1: VEGFR-2/hFc chimera, P35968 20-764 (Fc fusion)
chain: ASVGLPSVSLDLPRLSIQKDILTIKANTTLQITCRGQRDLDWLWPNNQSGSEQRVEVTECSDGLFCKTLTIPKVIGNDTGAYKCFYRETDLASVIYVYVQDYRSPFIASVSDQHGVVYITENKNKTVVIPCLGSISNLNVSLCARYPEKRFVPDGNRISWDSKKGFTIPSYMISYAGMVFCEAKINDESYQSIMYIVVVVGYRIYDVVLSPSHGIELSVGEKLVLNCTARTELNVGIDFNWEYPSSKHQHKKLVNRDLKTQSGSEMKKFLSTLTIDGVTRSDQGLYTCAASSGLMTKKNSTFVRVHEKPFVAFGSGMESLVEATVGERVRIPAKYLGYPPPEIKWYKNGIPLESNHTIKAGHVLTIMEVSERDTGNYTVILTNPISKEKQSHVVSLVVYVPPQIGEKSLISPVDSYQYGTTQTLTCTVYAIPPPHHIHWYWQLEEECANEPSQAVSVTNPYPCEEWRSVEDFQGGNKIEVNKNQFALIEGKNKTVSTLVIQAANVSALYKCEAVNKVGRGERVISFHVTRGPEITLQPDMQPTEQESVSLWCTADRSTFENLTWYKLGPQPLPIHVGELPTPVCKNLDTLWKLNATMFSNSTNDILIMELKNASLQDQGDYVCLAQDRKTKKRHCVVRQLTVLERVAPTITGNLENQTTSIGESIEVSCTASGNPPPQIMWFKDNETLVEDSGIVLKDGNRNLTIRRVRKEDEGLYTCQACSVLGCAKVEAFFIIEGAQEKTNLE
In the case of B1, the binding entry is “no binding (tested: 1 μg/ml)”.
